Assay results published in patent US20230203485A1, “METHODS FOR MODULATING MHC-I EXPRESSION AND IMMUNOTHERAPY USES THEREOF” (Dana-Farber Cancer Institute, Inc., priority 2020, published 2023).
Further values from the same series stand in other lists.

Test system: class I antigen presentation gene expression in MCC cell lines
Assay: RNA-seq / DESeq2 differential expression of MCC cell lines at baseline and after IFN-γ stimulation
Format: cell-based, human
Details: 11 MCC cell lines, baseline vs IFNγ, negative LFC = upregulation in IFNγ-treated
Experimental: FIG. 2A comprises RNA-seq heatmaps of class I antigen presentation gene expression in MCC lines and controls.
FIG. 2B is a volcano plot of differentially expressed genes (genes below FDR cutoff 0.01 are shown in yellow) between baseline and IFN-γ-treated MCC cell lines. Differential expression analysis was performed using DESeq2, and negative LFC indicates increased expression in +IFN-γ samples. IFN genes are highlighted in red.
RNA samples were first assessed for quality using the Agilent Bioanalyzer (DV200 metric). One hundred ng of RNA were used as the input for first strand cDNA synthesis using Superscript III reverse transcriptase and Illumina's TruSeq RNA Access Sample Prep Kit. Synthesis of the second strand of cDNA was followed by indexed adapter ligation with UMI (unique molecular index) adaptors. Subsequent PCR amplification enriched for adapted fragments. Amplified libraries were quantified, normalized, pooled, and hybridized with exome targeting oligos. Following hybridization, bead clean-up, elution and PCR was performed to prepare library pools for sequencing on Illumina flowcell lanes. Transcriptomes were sequenced to a coverage of at least 50 million reads in pairs.
Raw fastq files for fibroblast and keratinocyte control lines were downloaded from SRA using R Bioconductor package SRAdb (Mayakonda et al. (2018) supra; Zhu et al. (2013) BMC Bioinformatics 14 (1): 1-4) using accession codes SRP126422 (4 replicates from control samples ‘NN’) and SRP131347 (6 replicates with condition: control and genotype: control). These fastq files, along with those for the mkl1 and waga cell lines, were aligned using STAR version 2.7.3a (Dobin et al. (2013) Bioinformatics 29 (1): 15-21), using index genome reference file downloaded from ftp.ebi.ac.uk/pub/databases/gencode/Gencode_human/release_19/GRCh37.p13.genome.fa.gz, transcript annotation file downloaded from data.broadinstitute.org/snowman/hg19/star/gencode.v19.annotation.gtf, and with the following options: --twopassMode Basic, --outSAMstrandField intronMotif, --alignIntronMax 1000000, --alignMatesGapMax 1000000, --sjdbScore 2, --outSAMtype BAM Unsorted, --outSAMattributes NH HI NM MD AS XS, --outFilterType BySJout, --outSAMunmapped Within, --genomeLoad NoSharedMemory, --outFilterScoreMinOverLread 0, --outFilterMatchNminOverLread 0, --outFilterMismatchNmax 999, and outFilterMultimapNmax 20. Duplicates were marked with picard MarkDuplicates version 2.22.0-SNAPSHOT.
RNA-sequencing bam files for MCC tumor and cell line samples were downloaded from the Broad Genomics Firecloud/Terra platform using the Google Cloud Storage command line tool gsutil version 4.5 (github.com/GoogleCloudPlatform/gsutil/).
Gene counts were obtained from bam files using featureCounts version 2.0.0 (doi.org/10.1093/bioinformatics/btt656). Very lowly expressed genes with average count across samples less than 1 were excluded from analysis. Between-sample distance metrics were computed using the Euclidean distance on the vectors of variance-stabilized counts obtained from the vst function in the DESeq2 R Bioconductor package ([…]; Love et al. (2014) Genome Biology 15 (12): 550).
Differential expression analysis was carried out between (1) viral positive and viral negative samples (adjusting for cell line or tumor as a covariate), (2) cell line and tumor samples (adjusting for viral status as a covariate), and (3) IFNγ plus and minus samples (adjusting for viral status as a covariate) using the negative binomial GLM Wald test of DESeq2, where significance was assessed using the p-values adjusted for multiple comparisons under default settings. To account for potential global gene expression differences among sample groups, RUVg (Risso et al. (2014) […] 32 (9): 896-902) was used to estimate latent factors of unwanted variation from the list of housekeeping genes downloaded from www.tau.ac.il/˜elieis/HKG/HK_genes.txt. […]

B1: IFN-y: type II interferon, recombinant human, used to treat MCC cells (protein, UniProt P01579 24-161, looked up)
Interferon gamma: QDPYVKEAENLKKYFNAGHSDVADNGTLFLGILKNWKEESDRKIMQSQIVSFYFKLFKNFKDDQSIQKSVETIKEDMNVKFFNSNKKKRDDFEKLTNYSVTDLNVQRKAIHELIQVMAELSPAAKTGKRKRSQMLFRG
What does the source list for B1?
log2FoldChange (APOBEC3B ENSG00000179750.11): −3.14; log2FoldChange (APOBEC3D ENSG00000243811.3): −4.463; log2FoldChange (APOBEC3F ENSG00000128394.12): −4.302; log2FoldChange (APOBEC3G ENSG00000239713.3): −5.079; log2FoldChange (APOL1 ENSG00000100342.16): −10.56; log2FoldChange (APOL2 ENSG00000128335.9): −4.687; log2FoldChange (APOL3 ENSG00000128284.15): −8.094; log2FoldChange (APOL4 ENSG00000100336.13): −5.675; log2FoldChange (APOL6 ENSG00000221963.5): −9.041; log2FoldChange (CLIC2 ENSG00000155962.8): −6.265; log2FoldChange (CXorf38 ENSG00000185753.8): −0.7658; log2FoldChange (ENSG00000225008.1 (symbol NA)): −4.425; log2FoldChange (ENSG00000231010.1 (symbol NA)): −1.645; log2FoldChange (FAM122C ENSG00000156500.10): −0.7463; log2FoldChange (SERHL2 ENSG00000183569.13): −2.334; log2FoldChange (SERTM2 ENSG00000260802.1): −2.158
